Patent publication US9072901B2, “Cardiac neuromodulation and methods of using same” (The Board of Regents of the University of Oklahoma, priority 2001, dated 2015)
For at least one compound, name, drawing or mass did not settle the structure.

Tested on: canine intrinsic cardiac neurons
Test: Intracellular recording of canine intrinsic cardiac neurons in vitro, ACh pulse with or without hexamethonium
Assay type: cell-based
Conditions: 10 ms pulse of ACh 1 mM
Description: The horizontal bar under the traces indicates application of a 10 ms pulse of ACh (1 mM) from the tip of a pipette placed near the ganglion. A, CONTROL. […] DCX. […] During the repolarization phase, the membrane potential began to oscillate with APs being discharged on oscillatory peaks. […] DCX. […] The bursting of activity is reflective of the enhanced muscarinic receptor-mediated responses of these neurons.
Intrinsic cardiac neurons remain responsive to cholinergic synaptic inputs. The cholinergic receptor systems are differentially affected by disruption of nerve inputs to the ICN, with muscarinic responsiveness being enhanced (FIG. 9). Non-cholinergic neurotransmitters can modulate the activity of these neurons. FIG. 10 illustrates the interaction between acetylcholine and the peptide, substance P.

Compound: CC(=O)OCC[N+](C)(C)C [ACh, acetylcholine]
- membrane response to ACh (DCX (chronically decentralized) neuron): depolarized the chronically decentralized neuron more than the control one
- membrane response to ACh (sham CONTROL neuron): depolarized a control intrinsic cardiac neuron, evoking a short burst of APs
